# Experimental data: patent publication US20250283129A1, “PROCESS” (Sun Pharmaceutical Industries Australia Pty Limited, priority 2021, published 2025)
# Assay: Soluble protein expression by SDS-PAGE densiometric analysis
# Set-up: species or system E. coli
# Settings: not given
row,Molecule,level of soluble protein expression compared to WT CODM (in words)
1,"T3K: codeine 3-O-demethylase with amino acid substitution T3K (protein, listed as Papaver somniferum) MEKPILIKLGNGLSIPSVQELAKLTLAEIPSRYTCTGESPLNNIGASVTDDETVPVIDLQNLLSPEPVVGKLELDKLHSACKEWGFFQLVNHGVDALLMDNIKSEIKGFFNLPMNEKTKYGQQDGDFEGFGQPYIESEDQRLDWTEVFSMLSLPLHLRKPHLFPELPLPFRETLESYLSKMKKLSTVVFEMLEKSLQLVEIKGMTDLFEDGLQTMRMNYYPPCPRPELVLGLTSHSDFSGLTILLQLNEVEGLQIRKEERWISIKPLPDAFIVNVGDILEIMTNGIYRSVEHRAVVNSTKERLSIATFHDSKLESEIGPISSLVTPETPALFKRGRYEDILKENLSRKLDGKSFLDYMRM",little change
2,"P4A: codeine 3-O-demethylase with amino acid substitution P4A (protein, listed as Papaver somniferum) METAILIKLGNGLSIPSVQELAKLTLAEIPSRYTCTGESPLNNIGASVTDDETVPVIDLQNLLSPEPVVGKLELDKLHSACKEWGFFQLVNHGVDALLMDNIKSEIKGFFNLPMNEKTKYGQQDGDFEGFGQPYIESEDQRLDWTEVFSMLSLPLHLRKPHLFPELPLPFRETLESYLSKMKKLSTVVFEMLEKSLQLVEIKGMTDLFEDGLQTMRMNYYPPCPRPELVLGLTSHSDFSGLTILLQLNEVEGLQIRKEERWISIKPLPDAFIVNVGDILEIMTNGIYRSVEHRAVVNSTKERLSIATFHDSKLESEIGPISSLVTPETPALFKRGRYEDILKENLSRKLDGKSFLDYMRM",little change
3,"17M: codeine 3-O-demethylase with amino acid substitution I7M (protein, listed as Papaver somniferum) METPILMKLGNGLSIPSVQELAKLTLAEIPSRYTCTGESPLNNIGASVTDDETVPVIDLQNLLSPEPVVGKLELDKLHSACKEWGFFQLVNHGVDALLMDNIKSEIKGFFNLPMNEKTKYGQQDGDFEGFGQPYIESEDQRLDWTEVFSMLSLPLHLRKPHLFPELPLPFRETLESYLSKMKKLSTVVFEMLEKSLQLVEIKGMTDLFEDGLQTMRMNYYPPCPRPELVLGLTSHSDFSGLTILLQLNEVEGLQIRKEERWISIKPLPDAFIVNVGDILEIMTNGIYRSVEHRAVVNSTKERLSIATFHDSKLESEIGPISSLVTPETPALFKRGRYEDILKENLSRKLDGKSFLDYMRM",little change
4,"Y357S: codeine 3-O-demethylase with amino acid substitution Y357S (protein, listed as Papaver somniferum) METPILIKLGNGLSIPSVQELAKLTLAEIPSRYTCTGESPLNNIGASVTDDETVPVIDLQNLLSPEPVVGKLELDKLHSACKEWGFFQLVNHGVDALLMDNIKSEIKGFFNLPMNEKTKYGQQDGDFEGFGQPYIESEDQRLDWTEVFSMLSLPLHLRKPHLFPELPLPFRETLESYLSKMKKLSTVVFEMLEKSLQLVEIKGMTDLFEDGLQTMRMNYYPPCPRPELVLGLTSHSDFSGLTILLQLNEVEGLQIRKEERWISIKPLPDAFIVNVGDILEIMTNGIYRSVEHRAVVNSTKERLSIATFHDSKLESEIGPISSLVTPETPALFKRGRYEDILKENLSRKLDGKSFLDSMRM",little change

# Same assay, conditions: fold of WT CODM
row,Molecule,soluble protein expressed compared to WT CODM
1,"T3K+P4A+15K+17K: codeine 3-O-demethylase with amino acid substitutions T3K, P4A, I5K and I7M (protein, listed as Papaver somniferum) MEKAKLMKLGNGLSIPSVQELAKLTLAEIPSRYTCTGESPLNNIGASVTDDETVPVIDLQNLLSPEPVVGKLELDKLHSACKEWGFFQLVNHGVDALLMDNIKSEIKGFFNLPMNEKTKYGQQDGDFEGFGQPYIESEDQRLDWTEVFSMLSLPLHLRKPHLFPELPLPFRETLESYLSKMKKLSTVVFEMLEKSLQLVEIKGMTDLFEDGLQTMRMNYYPPCPRPELVLGLTSHSDFSGLTILLQLNEVEGLQIRKEERWISIKPLPDAFIVNVGDILEIMTNGIYRSVEHRAVVNSTKERLSIATFHDSKLESEIGPISSLVTPETPALFKRGRYEDILKENLSRKLDGKSFLDYMRM",~3.2 ×
2,"T3K+P4A+15K+17M+Y357S+M360I: codeine 3-O-demethylase with amino acid substitutions T3K, P4A, I5K, I7M, Y357S and M360I (protein, listed as Papaver somniferum) MEKAKLMKLGNGLSIPSVQELAKLTLAEIPSRYTCTGESPLNNIGASVTDDETVPVIDLQNLLSPEPVVGKLELDKLHSACKEWGFFQLVNHGVDALLMDNIKSEIKGFFNLPMNEKTKYGQQDGDFEGFGQPYIESEDQRLDWTEVFSMLSLPLHLRKPHLFPELPLPFRETLESYLSKMKKLSTVVFEMLEKSLQLVEIKGMTDLFEDGLQTMRMNYYPPCPRPELVLGLTSHSDFSGLTILLQLNEVEGLQIRKEERWISIKPLPDAFIVNVGDILEIMTNGIYRSVEHRAVVNSTKERLSIATFHDSKLESEIGPISSLVTPETPALFKRGRYEDILKENLSRKLDGKSFLDSMRI",~4 ×
3,"15K+M360I: codeine 3-O-demethylase with amino acid substitutions I5K and M360I (protein, listed as Papaver somniferum) METPKLIKLGNGLSIPSVQELAKLTLAEIPSRYTCTGESPLNNIGASVTDDETVPVIDLQNLLSPEPVVGKLELDKLHSACKEWGFFQLVNHGVDALLMDNIKSEIKGFFNLPMNEKTKYGQQDGDFEGFGQPYIESEDQRLDWTEVFSMLSLPLHLRKPHLFPELPLPFRETLESYLSKMKKLSTVVFEMLEKSLQLVEIKGMTDLFEDGLQTMRMNYYPPCPRPELVLGLTSHSDFSGLTILLQLNEVEGLQIRKEERWISIKPLPDAFIVNVGDILEIMTNGIYRSVEHRAVVNSTKERLSIATFHDSKLESEIGPISSLVTPETPALFKRGRYEDILKENLSRKLDGKSFLDYMRI",~5.5 ×
